The other results are listed elsewhere or left out. Shown are side measurements of this screen, not its main read-out; they come without a call. Most of these compounds were active or inconclusive in the main read-out, so they are no random draw. Words in brackets tell the shape of the fitted curve; partial curves, single points and poor fits give uncertain potencies.
Experiment: qHTS Assay for Lipid Storage Modulators in Drosophila S3 Cells;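 on cell number change: cells counted by Cell Tracker Red CMTPX staining in the red channel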
Conditions: BODIPY lipid droplet fluorescence, 18-24 h; for cell number change: measured here: cell count max response, cells fed with added oleic acid
Procedure, shortened: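 Laser-scanning cytometry quantifies lipid droplet accumulation (500–530 nm total intensity; droplet/cell object ratio) in oleic acid-fed (400 uM added) Drosophila S3 cells treated with a concentration series. 20 uM Triacsin C defined 100% inhibition.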

[1] = measured here: lipid fluorescence (Fed channel) AC50, cells fed with added oleic acid
[2] = measured here: cell number channel AC50, cells fed with added oleic acid

SMILES | cell number change | AC50 [1] | AC50 [2]
O=C(NC1CC1)C1CCCN1C(=O)NC1CCCCC1 (stereo unspecified) | -4.75% | 0.0651 µM [rising, full curve, poor fit] | 
O=C(CNc1cccc(C(F)(F)F)c1)N/N=C/c1cccc(Br)c1 | -64.6% | 9.2 µM [falling, partial curve] | 9.2 µM [falling, partial curve]
O=C(O)c1nn(CCOc2cccc(Br)c2)c(=O)c2ccccc12 | 12.8% |  | 
COc1cc(NC(=O)Cn2cnc3sc(C)c(S(=O)(=O)N4CCOCC4)c3c2=O)cc(OC)c1OC | -21.9% | 6.51 µM [rising, single point] | 1.03 µM [falling, full curve, poor fit]
COc1cccc(OCc2nnc(SCC(=O)OCc3ccccc3)o2)c1 | 0.668% | 8.2 µM [falling, partial curve] | 
Cc1oc(-c2ccccc2Cl)nc1CS(=O)CC(=O)NC1CC1 (stereo unspecified) | -4.18% |  | 
O=S(=O)(NCC1CCCO1)c1ccc(Cl)c(C(F)(F)F)c1 (stereo unspecified) | 20.4% | 3.66 µM [falling, partial curve, poor fit] | 
Cc1ccc(OCC(=O)N(C)CC(=O)Nc2ccc(Cl)c(C(F)(F)F)c2)c([N+](=O)[O-])n1 | 5.71% | 0.0517 µM [falling, full curve, poor fit] | 
Cc1ccc(OCCSc2nnc(NC(=O)c3ccco3)s2)cc1 | -45.9% | 7.31 µM [falling, partial curve] | 2.59 µM [falling, full curve]
N#CCCn1cc(C(=O)Nc2ccccn2)c(-c2ccccc2)n1 | 13.9% | 29.1 µM [rising, single point] | 
CC(C)Cn1c2c(c(=O)[nH]c1=O)C(C(F)(F)F)(C(F)(F)F)N=C(CCC1CCCCC1)N2 | -26% | 0.411 µM [falling, partial curve, poor fit] | 
Cc1cccc(-c2n[nH]c(=S)n2/N=C/c2ccc(C)s2)c1 | -54.4% |  | 29.1 µM [falling, single point]
Cc1cc(=O)[nH]c(SCC(=O)Nc2c(C)n(C)n(-c3ccccc3)c2=O)n1 | -3.98% | 20.6 µM [rising, partial curve, poor fit] | 
Cn1c(Cl)c(/C=N/OC(=O)c2cccc(Cl)c2)c2ccccc21 | -0.115% |  | 0.92 µM [falling, full curve]
O=C(OC(C(=O)NCc1cccs1)c1ccccn1)c1cccs1 (stereo unspecified) | 50.8% |  | 5.8 µM [rising, full curve]
CC1CCN(c2ccc(C(F)(F)F)cc2N)CC1 | -32.9% |  | 
Cc1ccc(C2/C(=C(\O)c3ccc4c(c3)OCCO4)C(=O)C(=O)N2CCCN(C)C)o1 (stereo unspecified) | 16.5% | 6.51 µM [falling, single point] | 
CC1CCCC(C)N1/N=C/c1ccc(O)c(O)c1 (stereo unspecified) | 47.5% | 29.1 µM [rising, partial curve, poor fit] | 14.6 µM [rising, single point]
CCOc1cc(CN2CCN(CCc3ccccc3)C(CCO)C2)ccc1OC (stereo unspecified) | 31.5% |  | 0.259 µM [rising, full curve, poor fit]
COc1ccc(/C(O)=C2/C(=O)C(=O)N(c3ccccn3)C2c2ccc(F)cc2)cc1 (stereo unspecified) | -39.7% | 4.11 µM [falling, partial curve] | 23.1 µM [falling, partial curve]
CN(Cc1ccccc1)C(=O)COc1ccc(Br)cc1Cl | 22.4% |  | 4.11 µM [rising, full curve, poor fit]

SMILES | cell number change | AC50 [1] | AC50 [2]
COC(=O)c1cc(=O)n(-c2ccc(F)cc2)c(=Nc2ccc(F)cc2)s1 | -20.1% | 23.1 µM [falling, partial curve, poor fit] | 
CCc1cn(C2CC(O)C(CO)O2)c(=O)[nH]c1=O (stereo unspecified) | 1.04% | 4.11 µM [falling, full curve, poor fit] | 
Cc1ccc(-c2n[nH]c(=O)c3ccccc23)cc1N | 24% | 0.366 µM [rising, full curve] | 0.13 µM [rising, full curve, poor fit]
Nn1c(SCC(=O)Nc2nccs2)nnc1-c1cccnc1 | -0.672% | 29.1 µM [rising, single point] | 
CCSc1nnc(NC(=O)CCNS(=O)(=O)c2ccccc2F)s1 | 21% |  | 
Cc1ccc(S(=O)(=O)N2c3ccccc3-c3c(ssc3=S)C2(C)C)cc1 | -64.8% |  | 16.4 µM [falling, single point]
Cc1ccc(OCC(=O)NC(=S)Nc2ccc(Br)cn2)cc1 | -11.6% | 18.4 µM [falling, single point] | 
CCOC(=O)c1nnsc1-c1ccc(-c2snnc2C(=O)OCC)cc1 | -1.12% |  | 
CCN(Cc1ccccc1)C(=S)Nc1cc(C(=O)OC)ccc1C(=O)OC | -18.1% | 0.231 µM [rising, full curve, poor fit] | 0.731 µM [falling, partial curve, poor fit]
O=C(O)C1Sc2[nH]c(=O)sc2C2c3cc(Cl)ccc3OC(=O)C12 (stereo unspecified) | -12.4% | 32.6 µM [rising, single point] | 0.366 µM [rising, partial curve]
CCN1C(=O)NC2C1N(S(C)(=O)=O)CCN2S(C)(=O)=O (stereo unspecified) | 0.209% | 3.26 µM [rising, single point] | 
O=C(Nc1c2c(nn1-c1ccc(F)cc1)CSC2)c1ccc(S(=O)(=O)N2CCOCC2)cc1 |  | 6.51 µM [rising, single point] | 
CS(=O)(=O)N(CC(=O)NCc1cccnc1)Cc1ccc(Cl)cc1 |  | 3.26 µM [rising, single point] | 
CC(C)NC(=O)CN(CCc1ccccc1)S(C)(=O)=O |  | 7.31 µM [falling, partial curve] | 
CC(C)(C)NC(=O)c1cc2c(ccc3ccccc32)oc1=O | -12% |  | 
O=C(Nc1ccc(Oc2ccccc2)nc1)C1CCCCN1Cc1ccc(O)cc1 (stereo unspecified) | -24% | 6.51 µM [rising, single point] | 
CCOc1cc(N2CCOCC2)c(OCC)cc1NC(=O)Cn1[nH]c(=O)c2ccccc2c1=O | -0.334% |  | 
O=C(Nc1ccc(Cn2cccn2)cc1)c1ccc(COc2ccc(Br)cc2)cc1 | 17.1% |  | 
CCN(CC(=O)Nc1cc(Cl)ccc1C)C(=O)Cn1c(=O)cnc2ccccc21 | 16.9% |  | 
O=C1c2ccccc2C(=O)N1CC#CCN1CCN(C2CCCCC2)CC1 | -75.2% | 20.6 µM [falling, single point] | 18.4 µM [falling, partial curve]
COc1cccc(NC(=O)N2CCN(S(C)(=O)=O)CC2)c1 | -24.3% | 23.1 µM [falling, single point] | 

SMILES | cell number change | AC50 [1] | AC50 [2]
Cc1ccc(N2C(=O)CN(Cc3ccccc3)C2=S)cc1C | -19% | 6.51 µM [rising, single point] | 
Cc1ccc(C)c(N(CC(=O)N2CCCC2)S(C)(=O)=O)c1 | -4.85% | 0.231 µM [rising, full curve, poor fit] | 
O=Cc1[nH]c2ccccc2c1N(C(=O)CCl)c1ccccc1 | -13.1% | 20.6 µM [falling, single point] | 
COc1ccccc1-c1noc(CCC(=O)NC2CCCC2)n1 | 4.91% | 23.1 µM [rising, single point] | 
COc1ccc(C2CC(c3ccccc3OC(C)=O)=NN2C(C)=O)cc1 (stereo unspecified) | 0.76% |  | 
Cc1ccc(OCC(=O)Nc2ccc(S(=O)(=O)N3CCOCC3)cc2)c(Br)c1 |  | 1.58 µM [falling, partial curve] | 
S=C(Nc1ccc(Cl)cc1)Nc1cccc2cnccc12 | 11.7% | 5.8 µM [rising, partial curve] | 
O=C(c1ccco1)N1c2ccccc2Sc2ccccc21 |  | 0.00517 µM [falling, full curve, poor fit] | 
Cc1cc(NC(=O)CSC2=NS(=O)(=O)c3ccccc3N2)no1 | -6.73% |  | 
CC1CN(S(=O)(=O)c2cccc(C(=O)Nc3cc(Cl)ccc3N3CCOCC3)c2)CC(C)O1 (stereo unspecified) | 4.45% |  | 0.731 µM [rising, single point]
Cc1ccnc(NC(=O)CCCNC(=O)c2ccc(Cl)cc2)c1 | 22.8% | 7.31 µM [rising, partial curve] | 
O=c1cc(N2CCCCC2)nc2n1CCCS2 | 5.5% |  | 
COc1ccc(S(=O)(=O)N2CCCC(C(=O)O)C2)cc1 (stereo unspecified) | 19.4% |  | 
CC(Oc1cccc(F)c1)C(=O)Nc1ccc(N2CCOCC2)cc1 (stereo unspecified) | 25.6% | 4.11 µM [rising, full curve, poor fit] | 4.11 µM [rising, full curve, poor fit]
Cc1ccc2oc(=O)cc(CN3CCOCC3)c2c1 | 18.4% | 13 µM [rising, single point] | 
CCC(=O)N1CCN(c2nc3ccc(Br)cc3s2)CC1 | 41.2% | 29.1 µM [rising, single point] | 29.1 µM [rising, single point]
CC(=O)c1c(C(C)=O)c(C)n(Cc2ccc3c(c2)OCO3)c1C | -43.1% |  | 20.6 µM [falling, partial curve]
CCOC(=O)c1ccc(NC2c3ccccc3C(=O)N2c2ccc(C)cn2)cc1 (stereo unspecified) | 3.31% | 29.1 µM [rising, partial curve, poor fit] | 
COc1ccc(C(=O)O/N=C(\N)Cc2cccs2)cc1OC | 13.5% |  | 
COc1ccc(S(=O)(=O)N2CCN(CC(=O)Nc3cccc(OC)c3)CC2)cc1 | 11.6% | 0.116 µM [rising, full curve, poor fit] | 

Pulled one by one from the entries so far (two):
SMILES | cell number change | AC50 [1] | AC50 [2]
CC(Oc1cccc(F)c1)C(=O)Nc1ccc(N2CCOCC2)cc1 (stereo unspecified) | 25.6% | 4.11 µM [rising, full curve, poor fit] | 4.11 µM [rising, full curve, poor fit]
CCOc1cc(CN2CCN(CCc3ccccc3)C(CCO)C2)ccc1OC (stereo unspecified) | 31.5% |  | 0.259 µM [rising, full curve, poor fit]
